Results are given in words; binding and its absence hold for the method and conditions named.

The assay deals with T1, bovine α-lactalbumin (bovine), P00711.
T1 chain: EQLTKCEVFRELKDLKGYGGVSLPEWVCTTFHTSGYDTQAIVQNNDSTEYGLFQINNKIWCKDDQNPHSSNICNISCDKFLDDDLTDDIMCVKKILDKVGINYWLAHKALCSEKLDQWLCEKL
In words: SEC; size-exclusion HPLC (COSMOSIL 5Diol-300-II), 50 mM sodium phosphate buffer, pH 6.5, 0.5 mL/min; BLA (20 µg) heated at 100 °C in HEPES buffer, pH 6.8, with or without 1 mM MMTS; both purified. As to conditions: remark: other sources report otherwise. A general note: In gel filtration, larger molecules generally elute earlier.

B1: bovine α-lactalbumin, P00711 20-142 (protein)
chain: EQLTKCEVFRELKDLKGYGGVSLPEWVCTTFHTSGYDTQAIVQNNDSTEYGLFQINNKIWCKDDQNPHSSNICNISCDKFLDDDLTDDIMCVKKILDKVGINYWLAHKALCSEKLDQWLCEKL
Take B1: the binding entry is given as “no binding”.

The values above are taken from publication PMC5622167.
